# Experimental data as given in paper doi:10.1101/2024.11.26.625369.
# Sequences of proteins named here, by UniProt entry; tags and fusion partners are left off.
# UniProt Q8N201: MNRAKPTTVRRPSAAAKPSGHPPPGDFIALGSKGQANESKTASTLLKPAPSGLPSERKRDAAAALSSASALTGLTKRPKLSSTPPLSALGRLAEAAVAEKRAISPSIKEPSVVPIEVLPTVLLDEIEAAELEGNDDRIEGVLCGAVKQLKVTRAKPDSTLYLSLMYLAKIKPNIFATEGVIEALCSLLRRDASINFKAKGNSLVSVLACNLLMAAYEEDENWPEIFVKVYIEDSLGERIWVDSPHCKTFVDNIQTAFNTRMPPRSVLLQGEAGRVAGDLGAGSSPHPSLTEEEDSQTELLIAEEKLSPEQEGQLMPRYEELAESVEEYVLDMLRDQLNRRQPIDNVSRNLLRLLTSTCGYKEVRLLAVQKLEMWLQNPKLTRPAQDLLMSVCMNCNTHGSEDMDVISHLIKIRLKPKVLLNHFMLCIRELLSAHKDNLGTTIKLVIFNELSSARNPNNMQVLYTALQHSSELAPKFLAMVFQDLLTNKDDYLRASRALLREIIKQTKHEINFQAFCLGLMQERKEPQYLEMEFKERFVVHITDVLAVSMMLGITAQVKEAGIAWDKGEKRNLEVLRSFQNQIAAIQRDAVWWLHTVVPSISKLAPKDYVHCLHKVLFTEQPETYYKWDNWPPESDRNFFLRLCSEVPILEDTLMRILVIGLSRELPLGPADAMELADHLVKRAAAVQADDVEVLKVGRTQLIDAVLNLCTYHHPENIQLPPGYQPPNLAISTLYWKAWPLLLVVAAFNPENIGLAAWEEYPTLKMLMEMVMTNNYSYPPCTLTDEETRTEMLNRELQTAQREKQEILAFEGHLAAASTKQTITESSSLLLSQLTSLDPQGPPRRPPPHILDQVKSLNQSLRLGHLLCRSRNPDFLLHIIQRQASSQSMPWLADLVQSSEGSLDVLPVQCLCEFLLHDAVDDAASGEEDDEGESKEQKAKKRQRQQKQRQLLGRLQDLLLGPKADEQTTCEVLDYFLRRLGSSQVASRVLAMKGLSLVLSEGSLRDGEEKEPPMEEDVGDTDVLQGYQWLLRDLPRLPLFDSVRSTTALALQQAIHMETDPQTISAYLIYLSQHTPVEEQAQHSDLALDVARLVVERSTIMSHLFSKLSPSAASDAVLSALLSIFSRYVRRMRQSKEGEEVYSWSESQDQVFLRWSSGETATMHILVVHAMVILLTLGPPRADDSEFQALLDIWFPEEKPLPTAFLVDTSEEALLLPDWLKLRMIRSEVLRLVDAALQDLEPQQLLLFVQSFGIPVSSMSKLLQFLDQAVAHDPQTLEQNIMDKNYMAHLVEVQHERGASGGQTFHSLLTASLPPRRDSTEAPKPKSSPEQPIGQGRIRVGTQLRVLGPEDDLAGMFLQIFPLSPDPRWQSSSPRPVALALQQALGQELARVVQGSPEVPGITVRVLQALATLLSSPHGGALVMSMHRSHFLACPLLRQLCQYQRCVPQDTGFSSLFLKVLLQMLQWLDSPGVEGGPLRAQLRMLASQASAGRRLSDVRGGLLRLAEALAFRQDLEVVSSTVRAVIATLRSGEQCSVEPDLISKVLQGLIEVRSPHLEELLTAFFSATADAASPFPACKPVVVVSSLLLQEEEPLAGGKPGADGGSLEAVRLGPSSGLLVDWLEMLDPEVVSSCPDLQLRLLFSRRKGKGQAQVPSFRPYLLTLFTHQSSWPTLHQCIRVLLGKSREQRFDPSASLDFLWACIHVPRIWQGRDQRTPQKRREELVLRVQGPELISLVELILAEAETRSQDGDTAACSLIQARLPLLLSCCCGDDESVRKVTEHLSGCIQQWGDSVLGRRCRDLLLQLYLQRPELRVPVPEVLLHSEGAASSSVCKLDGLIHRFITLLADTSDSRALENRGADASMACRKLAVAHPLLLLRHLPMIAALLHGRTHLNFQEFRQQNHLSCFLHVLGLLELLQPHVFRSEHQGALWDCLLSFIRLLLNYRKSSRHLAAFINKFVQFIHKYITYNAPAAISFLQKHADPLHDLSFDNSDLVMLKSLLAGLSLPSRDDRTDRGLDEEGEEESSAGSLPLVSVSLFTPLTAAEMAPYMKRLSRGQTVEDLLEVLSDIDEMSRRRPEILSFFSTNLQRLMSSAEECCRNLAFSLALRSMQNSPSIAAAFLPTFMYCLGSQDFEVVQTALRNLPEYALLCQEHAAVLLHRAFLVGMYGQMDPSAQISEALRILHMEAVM
# UniProt Q96HW7: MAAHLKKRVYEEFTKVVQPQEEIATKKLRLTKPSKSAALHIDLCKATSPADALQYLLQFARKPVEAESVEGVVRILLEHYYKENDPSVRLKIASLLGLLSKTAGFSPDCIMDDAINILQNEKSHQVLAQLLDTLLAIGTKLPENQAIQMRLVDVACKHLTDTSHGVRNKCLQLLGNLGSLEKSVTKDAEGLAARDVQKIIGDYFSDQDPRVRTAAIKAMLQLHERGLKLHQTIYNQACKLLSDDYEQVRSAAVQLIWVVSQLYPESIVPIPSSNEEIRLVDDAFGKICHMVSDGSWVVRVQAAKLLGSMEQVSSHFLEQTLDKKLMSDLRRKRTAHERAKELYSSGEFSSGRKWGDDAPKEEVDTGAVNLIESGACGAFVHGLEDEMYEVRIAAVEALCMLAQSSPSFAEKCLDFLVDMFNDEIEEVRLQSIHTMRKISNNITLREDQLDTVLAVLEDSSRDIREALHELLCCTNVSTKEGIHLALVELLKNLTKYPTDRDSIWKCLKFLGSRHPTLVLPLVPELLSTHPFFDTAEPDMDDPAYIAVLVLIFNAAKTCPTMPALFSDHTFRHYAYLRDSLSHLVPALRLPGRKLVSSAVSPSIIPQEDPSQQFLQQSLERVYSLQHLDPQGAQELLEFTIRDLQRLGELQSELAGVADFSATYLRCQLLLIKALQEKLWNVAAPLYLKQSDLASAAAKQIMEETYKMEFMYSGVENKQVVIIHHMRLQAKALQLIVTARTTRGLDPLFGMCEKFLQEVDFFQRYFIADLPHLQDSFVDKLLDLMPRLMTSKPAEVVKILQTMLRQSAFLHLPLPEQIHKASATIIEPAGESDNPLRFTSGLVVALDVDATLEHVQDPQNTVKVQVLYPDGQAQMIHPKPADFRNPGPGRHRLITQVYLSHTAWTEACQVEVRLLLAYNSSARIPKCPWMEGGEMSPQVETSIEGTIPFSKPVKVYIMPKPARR
# UniProt Q75QN2: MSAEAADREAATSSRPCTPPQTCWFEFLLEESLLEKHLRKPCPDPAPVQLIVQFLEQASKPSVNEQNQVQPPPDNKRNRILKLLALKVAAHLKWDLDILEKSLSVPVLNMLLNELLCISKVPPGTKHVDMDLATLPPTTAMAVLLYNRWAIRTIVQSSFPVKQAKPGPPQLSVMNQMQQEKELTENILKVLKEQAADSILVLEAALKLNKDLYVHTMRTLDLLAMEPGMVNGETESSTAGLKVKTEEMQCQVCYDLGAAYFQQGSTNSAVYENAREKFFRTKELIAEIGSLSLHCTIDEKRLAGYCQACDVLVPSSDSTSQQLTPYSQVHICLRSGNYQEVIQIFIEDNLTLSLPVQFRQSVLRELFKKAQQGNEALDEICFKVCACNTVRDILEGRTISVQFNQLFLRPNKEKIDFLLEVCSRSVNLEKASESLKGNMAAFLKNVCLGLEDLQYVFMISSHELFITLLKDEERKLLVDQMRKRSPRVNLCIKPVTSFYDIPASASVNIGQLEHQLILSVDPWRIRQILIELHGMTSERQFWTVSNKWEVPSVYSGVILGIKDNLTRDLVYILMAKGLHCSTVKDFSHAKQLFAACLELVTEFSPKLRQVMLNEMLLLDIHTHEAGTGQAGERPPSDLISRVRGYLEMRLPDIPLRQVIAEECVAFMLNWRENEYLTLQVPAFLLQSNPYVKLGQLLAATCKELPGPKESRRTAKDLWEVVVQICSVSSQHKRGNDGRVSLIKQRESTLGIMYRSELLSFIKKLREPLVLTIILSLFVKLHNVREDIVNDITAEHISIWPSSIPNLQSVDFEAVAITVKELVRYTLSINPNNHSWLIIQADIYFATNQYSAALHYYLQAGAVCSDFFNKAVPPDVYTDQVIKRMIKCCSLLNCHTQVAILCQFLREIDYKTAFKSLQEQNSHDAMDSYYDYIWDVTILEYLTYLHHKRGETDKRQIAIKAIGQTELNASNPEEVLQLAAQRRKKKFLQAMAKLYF
# No constants are given. Whether binding was seen depends on the method and setting. In cells and extracts the contact can be indirect. Some binding calls cover weakened binding; strength is not graded here.
# Biological target: Integrator subunit INTS1 (human (endogenous in H9 hESC-derived NPCs)) (UniProt Q8N201)
# Assay: co-IP
row,Substance,binding
1,Integrator subunit INTS4 (from UniProt Q96HW7 1-963),binds
2,Integrator subunit 8 (INTS8) (from UniProt Q75QN2 1-995),binds
